In PMC7801519:

Target: T1, Flag-PBK (human) (UniProt Q96KB5)
T1 sequence: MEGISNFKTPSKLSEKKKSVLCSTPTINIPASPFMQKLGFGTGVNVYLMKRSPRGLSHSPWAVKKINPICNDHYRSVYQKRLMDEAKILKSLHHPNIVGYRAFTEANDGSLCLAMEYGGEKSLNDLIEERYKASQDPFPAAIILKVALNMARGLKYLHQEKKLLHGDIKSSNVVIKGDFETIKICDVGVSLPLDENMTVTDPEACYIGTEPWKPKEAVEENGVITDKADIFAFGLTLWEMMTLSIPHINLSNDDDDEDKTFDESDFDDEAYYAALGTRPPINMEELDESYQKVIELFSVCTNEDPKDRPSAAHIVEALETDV
Test: affinity purification with mass spectrometry; 293T cells transfected with Flag-PBK or vector for 48 h; IP lysis buffer (50 mM Tris-Cl pH 7.4, 150 mM NaCl, 0.5% NP-40, 5 mM EDTA); Flag affinity agarose beads overnight at 4 °C; SDS-PAGE, silver staining, indicated bands to mass spectrometry

B1: MSL1 (male-specific lethal 1 homolog), endogenous in 293T cells (protein, UniProt Q68DK7 1-614)
chain: MTMRSAVFKAAAAPAGGNPEQRLDYERAAALGGPEDEPGAAEAHFLPRHRKLKEPGPPLASSQGGSPAPSPAGCGGKGRGLLLPAGAAPGQQEESWGGSVPLPCPPPATKQAGIGGEPAAAGAGCSPRPKYQAVLPIQTGSLVAAAKEPTPWAGDKGGAASPAATASDPAGPPPLPLPGPPPLAPTATAGTLAASEGRWKSMRKSPLGGGGGSGASSQAACLKQILLLQLDLIEQQQQQLQAKEKEIEELKSERDTLLARIERMERRMQLVKKDNEKERHKLFQGYETEEREETELSEKIKLECQPELSETSQTLPPKPFSCGRSGKGHKRKSPFGSTERKTPVKKLAPEFSKVKTKTPKHSPIKEEPCGSLSETVCKRELRSQETPEKPRSSVDTPPRLSTPQKGPSTHPKEKAFSSEIEDLPYLSTTEMYLCRWHQPPPSPLPLRESSPKKEETVARCLMPSSVAGETSVLAVPSWRDHSVEPLRDPNPSDLLENLDDSVFSKRHAKLELDEKRRKRWDIQRIREQRILQRLQLRMYKKKGIQESEPEVTSFFPEPDDVESLMITPFLPVVAFGRPLPKLTPQNFELPWLDERSRCRLEIQKKQTPHRTCRK
**Q.** B1 was tested. Which binding did it give?
**A.** binds

No constants are given. Whether binding was seen depends on the method and setting. In cells and extracts the contact can be indirect. Here binding means that the protein was enriched with, or labelled near, the bait; the list need not be complete. Tags and fused reporters may be left off the sequences shown.
